From PMC3738494, “A Systematic Analysis of Host Factors Reveals a Med23-Interferon-λ Regulatory Axis against Herpes Simplex Virus Type 1 Replication” (PLoS Pathogens, 2013)
These are yes or no findings as the source states them, for the method shown. For part of these data: Binding seen in cells or lysates may run through a third protein. Some binding calls cover weakened binding; strength is not graded here. For part of these data: Tags and fused reporters may be left off the sequences shown.

T1: Med23, myc-tagged fusion protein expressed in HEK cells (human) (UniProt Q9ULK4)
T1 sequence: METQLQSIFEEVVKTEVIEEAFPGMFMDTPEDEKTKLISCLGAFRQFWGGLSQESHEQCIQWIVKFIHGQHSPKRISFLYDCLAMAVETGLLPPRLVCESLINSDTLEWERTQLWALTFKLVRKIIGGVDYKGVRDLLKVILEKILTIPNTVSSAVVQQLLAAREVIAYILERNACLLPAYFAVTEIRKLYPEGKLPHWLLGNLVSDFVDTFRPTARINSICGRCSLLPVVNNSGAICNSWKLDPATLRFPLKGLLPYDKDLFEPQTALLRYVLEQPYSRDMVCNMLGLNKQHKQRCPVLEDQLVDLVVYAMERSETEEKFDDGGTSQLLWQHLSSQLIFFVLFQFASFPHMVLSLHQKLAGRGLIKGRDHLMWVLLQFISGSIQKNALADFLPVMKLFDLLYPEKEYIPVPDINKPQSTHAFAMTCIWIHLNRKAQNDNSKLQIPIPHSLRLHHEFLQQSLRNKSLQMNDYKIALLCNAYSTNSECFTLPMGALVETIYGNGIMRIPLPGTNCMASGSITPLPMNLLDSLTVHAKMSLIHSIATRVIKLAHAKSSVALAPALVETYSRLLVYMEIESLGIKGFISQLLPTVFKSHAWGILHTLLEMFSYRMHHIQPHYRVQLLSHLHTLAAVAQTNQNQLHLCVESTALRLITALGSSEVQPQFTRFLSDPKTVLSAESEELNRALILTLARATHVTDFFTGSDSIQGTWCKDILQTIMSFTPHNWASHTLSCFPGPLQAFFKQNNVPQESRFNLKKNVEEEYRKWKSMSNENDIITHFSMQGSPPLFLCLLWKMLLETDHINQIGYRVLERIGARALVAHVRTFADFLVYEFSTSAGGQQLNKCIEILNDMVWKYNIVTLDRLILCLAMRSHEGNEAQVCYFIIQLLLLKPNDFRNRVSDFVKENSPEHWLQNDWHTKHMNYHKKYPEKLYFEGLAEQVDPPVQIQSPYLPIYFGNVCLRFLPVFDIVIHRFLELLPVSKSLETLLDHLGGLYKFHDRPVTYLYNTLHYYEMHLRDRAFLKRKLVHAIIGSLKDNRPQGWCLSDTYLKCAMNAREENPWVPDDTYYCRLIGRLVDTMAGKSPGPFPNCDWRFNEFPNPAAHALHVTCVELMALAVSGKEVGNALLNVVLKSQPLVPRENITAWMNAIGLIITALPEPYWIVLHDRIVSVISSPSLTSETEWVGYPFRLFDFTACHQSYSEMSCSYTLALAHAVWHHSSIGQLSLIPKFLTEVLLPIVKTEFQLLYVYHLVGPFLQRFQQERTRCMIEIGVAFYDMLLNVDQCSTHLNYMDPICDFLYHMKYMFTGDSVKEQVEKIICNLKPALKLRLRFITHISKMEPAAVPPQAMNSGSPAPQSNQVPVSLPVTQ

T2: Med23 (Mediator complex subunit 23), yeast two-hybrid bait pGBKT7-Med23 (human) (UniProt Q9ULK4)
T2 sequence: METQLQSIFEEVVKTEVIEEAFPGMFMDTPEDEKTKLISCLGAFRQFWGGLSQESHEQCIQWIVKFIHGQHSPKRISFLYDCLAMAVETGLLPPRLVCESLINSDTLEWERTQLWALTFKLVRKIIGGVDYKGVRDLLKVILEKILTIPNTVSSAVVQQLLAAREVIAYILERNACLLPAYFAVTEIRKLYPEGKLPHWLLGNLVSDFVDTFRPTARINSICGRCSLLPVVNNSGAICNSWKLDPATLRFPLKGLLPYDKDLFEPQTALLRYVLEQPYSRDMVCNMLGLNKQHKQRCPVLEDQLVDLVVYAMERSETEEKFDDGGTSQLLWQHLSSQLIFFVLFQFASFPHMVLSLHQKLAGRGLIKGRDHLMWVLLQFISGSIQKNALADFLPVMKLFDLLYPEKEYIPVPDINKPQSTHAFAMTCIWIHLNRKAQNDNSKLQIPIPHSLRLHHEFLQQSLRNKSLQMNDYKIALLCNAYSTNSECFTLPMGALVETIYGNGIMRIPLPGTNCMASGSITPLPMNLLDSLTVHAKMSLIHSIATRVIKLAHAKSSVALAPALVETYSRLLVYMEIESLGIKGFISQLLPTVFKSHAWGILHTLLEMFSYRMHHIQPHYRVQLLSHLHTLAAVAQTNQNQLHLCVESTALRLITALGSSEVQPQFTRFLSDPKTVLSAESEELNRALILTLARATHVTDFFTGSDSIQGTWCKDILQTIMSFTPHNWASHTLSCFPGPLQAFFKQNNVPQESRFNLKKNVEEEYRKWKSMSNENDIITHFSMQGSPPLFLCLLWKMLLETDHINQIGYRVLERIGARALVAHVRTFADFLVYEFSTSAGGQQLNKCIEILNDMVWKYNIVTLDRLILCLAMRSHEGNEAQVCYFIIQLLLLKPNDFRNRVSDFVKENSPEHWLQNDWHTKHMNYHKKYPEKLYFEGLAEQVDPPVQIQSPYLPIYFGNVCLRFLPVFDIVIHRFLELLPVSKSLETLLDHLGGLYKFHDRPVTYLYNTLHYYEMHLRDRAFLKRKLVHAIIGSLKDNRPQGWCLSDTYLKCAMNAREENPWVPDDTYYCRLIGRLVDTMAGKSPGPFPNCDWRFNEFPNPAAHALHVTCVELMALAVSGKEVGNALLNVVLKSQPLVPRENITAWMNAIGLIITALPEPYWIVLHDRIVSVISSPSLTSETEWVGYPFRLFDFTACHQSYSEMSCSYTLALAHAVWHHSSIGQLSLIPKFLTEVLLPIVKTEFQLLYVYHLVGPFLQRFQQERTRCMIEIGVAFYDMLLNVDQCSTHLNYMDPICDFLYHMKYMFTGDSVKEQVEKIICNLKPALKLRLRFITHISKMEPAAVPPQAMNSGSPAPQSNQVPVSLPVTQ


These binders were tested against T1, Med23, myc-tagged fusion protein expressed in HEK cells (human) (assay: co-IP; myc-Med23 and HA-IRF co-expressed in HEK293 (vTF-7, T7 promoter); NP40 lysate; IP with anti-myc, blot with anti-HA).

| binding | Binder |
| --- | --- |
| binds weakly | IRF9, HA-tagged, expressed in HEK cells (protein, UniProt Q00978 1-393) MASGRARCTRKLRNWVVEQVESGQFPGVCWDDTAKTMFRIPWKHAGKQDFREDQDAAFFKAWAIFKGKYKEGDTGGPAVWKTRLRCALNKSSEFKEVPERGRMDVAEPYKVYQLLPPGIVSGQPGTQKVPSKRQHSSVSSERKEEEDAMQNCTLSPSVLQDSLNNEEEGASGGAVHSDIGSSSSSSSPEPQEVTDTTEAPFQGDQRSLEFLLPPEPDYSLLLTFIYNGRVVGEAQVQSLDCRLVAEPSGSESSMEQVLFPKPGPLEPTQRLLSQLERGILVASNPRGLFVQRLCPIPISWNAPQAPPGPGPHLLPSNECVELFRTAYFCRDLVRYFQGLGPPPKFQVTLNFWEESHGSSHTPQNLITVKMEQAFARYLLEQTPEQQAAILSLV |
| binds | IRF7, HA-tagged, expressed in HEK cells (natural protein, human, UniProt Q92985 1-503, looked up) MALAPERAAPRVLFGEWLLGEISSGCYEGLQWLDEARTCFRVPWKHFARKDLSEADARIFKAWAVARGRWPPSSRGGGPPPEAETAERAGWKTNFRCALRSTRRFVMLRDNSGDPADPHKVYALSRELCWREGPGTDQTEAEAPAAVPPPQGGPPGPFLAHTHAGLQAPGPLPAPAGDKGDLLLQAVQQSCLADHLLTASWGADPVPTKAPGEGQEGLPLTGACAGGPGLPAGELYGWAVETTPSPGPQPAALTTGEAAAPESPHQAEPYLSPSPSACTAVQEPSPGALDVTIMYKGRTVLQKVVGHPSCTFLYGPPDPAVRATDPQQVAFPSPAELPDQKQLRYTEELLRHVAPGLHLELRGPQLWARRMGKCKVYWEVGGPPGSASPSTPACLLPRNCDTPIFDFRVFFQELVEFRARQRRGSPRYTIYLGFGQDLSAGRPKEKSLVLVKLEPWLCRVHLEGTQREGVSSLDSSSLSLCLSSANSLYDDIECFLMELEQPA |
| binds | IRF4, HA-tagged, expressed in HEK cells (protein, UniProt Q15306 1-451) MNLEGGGRGGEFGMSAVSCGNGKLRQWLIDQIDSGKYPGLVWENEEKSIFRIPWKHAGKQDYNREEDAALFKAWALFKGKFREGIDKPDPPTWKTRLRCALNKSNDFEELVERSQLDISDPYKVYRIVPEGAKKGAKQLTLEDPQMSMSHPYTMTTPYPSLPAQQVHNYMMPPLDRSWRDYVPDQPHPEIPYQCPMTFGPRGHHWQGPACENGCQVTGTFYACAPPESQAPGVPTEPSIRSAEALAFSDCRLHICLYYREILVKELTTSSPEGCRISHGHTYDASNLDQVLFPYPEDNGQRKNIEKLLSHLERGVVLWMAPDGLYAKRLCQSRIYWDGPLALCNDRPNKLERDQTCKLFDTQQFLSELQAFAHHGRSLPRFQVTLCFGEEFPDPQRQRKLITAHVEPLLARQLYYFAQQNSGHFLRGYDLPEHISNPEDYHRSIRHSSIQE |

Each binder was assayed against T2, Med23 (Mediator complex subunit 23), yeast two-hybrid bait pGBKT7-Med23 (human) (assay: two-hybrid; pairwise mating: Med23 bait (pGBKT7, Y187) with IRF preys (pGADT7, AH109); growth on SD-LWH with 3-AT and fluorescence from 4-MuX cleavage, quadruplicates).

| binding | Binder |
| --- | --- |
| binds weakly | IRF9, yeast two-hybrid prey pGADT7-IRF9 (protein, UniProt Q00978 1-393) MASGRARCTRKLRNWVVEQVESGQFPGVCWDDTAKTMFRIPWKHAGKQDFREDQDAAFFKAWAIFKGKYKEGDTGGPAVWKTRLRCALNKSSEFKEVPERGRMDVAEPYKVYQLLPPGIVSGQPGTQKVPSKRQHSSVSSERKEEEDAMQNCTLSPSVLQDSLNNEEEGASGGAVHSDIGSSSSSSSPEPQEVTDTTEAPFQGDQRSLEFLLPPEPDYSLLLTFIYNGRVVGEAQVQSLDCRLVAEPSGSESSMEQVLFPKPGPLEPTQRLLSQLERGILVASNPRGLFVQRLCPIPISWNAPQAPPGPGPHLLPSNECVELFRTAYFCRDLVRYFQGLGPPPKFQVTLNFWEESHGSSHTPQNLITVKMEQAFARYLLEQTPEQQAAILSLV |
| binds | IRF7, yeast two-hybrid prey pGADT7-IRF7 (protein, UniProt Q92985 1-503) MALAPERAAPRVLFGEWLLGEISSGCYEGLQWLDEARTCFRVPWKHFARKDLSEADARIFKAWAVARGRWPPSSRGGGPPPEAETAERAGWKTNFRCALRSTRRFVMLRDNSGDPADPHKVYALSRELCWREGPGTDQTEAEAPAAVPPPQGGPPGPFLAHTHAGLQAPGPLPAPAGDKGDLLLQAVQQSCLADHLLTASWGADPVPTKAPGEGQEGLPLTGACAGGPGLPAGELYGWAVETTPSPGPQPAALTTGEAAAPESPHQAEPYLSPSPSACTAVQEPSPGALDVTIMYKGRTVLQKVVGHPSCTFLYGPPDPAVRATDPQQVAFPSPAELPDQKQLRYTEELLRHVAPGLHLELRGPQLWARRMGKCKVYWEVGGPPGSASPSTPACLLPRNCDTPIFDFRVFFQELVEFRARQRRGSPRYTIYLGFGQDLSAGRPKEKSLVLVKLEPWLCRVHLEGTQREGVSSLDSSSLSLCLSSANSLYDDIECFLMELEQPA |
| binds | IRF4, yeast two-hybrid prey pGADT7-IRF4 (protein, UniProt Q15306 1-451) MNLEGGGRGGEFGMSAVSCGNGKLRQWLIDQIDSGKYPGLVWENEEKSIFRIPWKHAGKQDYNREEDAALFKAWALFKGKFREGIDKPDPPTWKTRLRCALNKSNDFEELVERSQLDISDPYKVYRIVPEGAKKGAKQLTLEDPQMSMSHPYTMTTPYPSLPAQQVHNYMMPPLDRSWRDYVPDQPHPEIPYQCPMTFGPRGHHWQGPACENGCQVTGTFYACAPPESQAPGVPTEPSIRSAEALAFSDCRLHICLYYREILVKELTTSSPEGCRISHGHTYDASNLDQVLFPYPEDNGQRKNIEKLLSHLERGVVLWMAPDGLYAKRLCQSRIYWDGPLALCNDRPNKLERDQTCKLFDTQQFLSELQAFAHHGRSLPRFQVTLCFGEEFPDPQRQRKLITAHVEPLLARQLYYFAQQNSGHFLRGYDLPEHISNPEDYHRSIRHSSIQE |
